For 2 molecules, binding results are on record in PMC6277414.

Assay [1] addresses T1, Dvl2-Flag (Dishevelled-2, Flag-tagged) (UniProt Q60838).
T1 sequence: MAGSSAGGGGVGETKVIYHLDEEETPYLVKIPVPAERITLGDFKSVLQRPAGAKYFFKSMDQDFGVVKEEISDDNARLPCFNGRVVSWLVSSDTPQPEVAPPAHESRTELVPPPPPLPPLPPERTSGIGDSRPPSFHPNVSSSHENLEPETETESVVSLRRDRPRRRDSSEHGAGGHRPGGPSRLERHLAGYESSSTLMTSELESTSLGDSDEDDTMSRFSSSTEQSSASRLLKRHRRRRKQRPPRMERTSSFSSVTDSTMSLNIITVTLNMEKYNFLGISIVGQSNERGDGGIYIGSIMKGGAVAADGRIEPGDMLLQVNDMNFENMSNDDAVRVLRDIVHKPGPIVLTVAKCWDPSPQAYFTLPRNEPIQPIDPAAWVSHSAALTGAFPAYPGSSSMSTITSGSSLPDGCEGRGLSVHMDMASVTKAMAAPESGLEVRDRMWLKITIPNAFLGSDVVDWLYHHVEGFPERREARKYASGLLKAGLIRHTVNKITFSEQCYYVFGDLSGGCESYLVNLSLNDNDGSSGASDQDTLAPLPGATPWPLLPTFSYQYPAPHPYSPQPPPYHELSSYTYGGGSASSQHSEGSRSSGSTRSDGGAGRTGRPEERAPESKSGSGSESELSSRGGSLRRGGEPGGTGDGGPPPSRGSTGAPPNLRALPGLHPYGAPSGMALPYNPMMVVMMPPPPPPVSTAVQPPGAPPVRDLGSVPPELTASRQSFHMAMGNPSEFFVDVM
Nature of the assay: co-IP; reciprocal co-IP from HEK293T cells co-transfected with Islr-GFP and Dvl2-Flag; IP lysis buffer; precipitated with Flag or GFP antibody and protein G beads; washed three times; Western blot.

The target of assay [2] is T2, Dishevelled-2 (Dvl2), endogenous (mouse (endogenous in primary myoblasts)) (UniProt Q60838).
T2 sequence: T1 sequence
Nature of the assay: co-IP; reciprocal co-IP of endogenous Islr and Dvl2 from primary myoblasts cultured for 4 d in differentiation medium; Western blot. For orientation: In western blotting, separated proteins are transferred to a membrane and probed.

Results are given in words; binding and its absence hold for the method and conditions named. Binding seen in cells or lysates may run through a third protein. Some entries that bind do so weakly or less than the wild type. For some assays here: Sequences can lack the tags named with a protein.

B1: Islr-GFP (immunoglobulin superfamily containing leucine-rich repeat, GFP-tagged) (protein, UniProt Q6GU68 19-428)
chain: CPEPCDCGEKYGFQIADCAYRDLEGVPPGFPANVTTLSLSANRLPGLPEGAFREVPLLQSLWLAHNEIRSVAIGALAPLSHLKSLDLSHNLLSEFAWSDLHNLSALQLLKMDSNELAFIPRDAFSSLSALRSLQLNHNRLHALAEGTFAPLTALSHLQINDNPFDCTCGIVWFKTWALASAVSIPEQDNIACTTPHVLKGIPLGRLPPLPCSAPSVQLSYQPSQDGAELRPGFVLALHCDVDGQPVPQLHWHIHTPGGTVEIASPNVGTDGRALPGALATSGQPRFQAFANGSLLIPDFGKLEEGTYSCLATNELGSAESSVNVALATPGEGGEDAVGHKFHGKAVEGKGCYTVDNEVQPSGPEDNVVIIYLSRAGPPEAAIAADGRPAQQFSGILLLGQSLLVLSFFYF
As for B1, in assay [1], the binding entry was “binds”.

B2: Islr (immunoglobulin superfamily containing leucine-rich repeat), endogenous (protein, UniProt Q6GU68 19-428)
chain: B1 chain
B2: the binding result in assay [2] is on record as “binds”.
